Data as given in PMC11128212.
These are yes or no findings as the source states them, for the method shown. Binding seen in cells or lysates may run through a third protein. Some entries that bind do so weakly or less than the wild type.

Protein sequences, listed by entry. Tags and fused reporters are not part of them. Residues count along the entry.
UniProt P35968, residues 20-1356: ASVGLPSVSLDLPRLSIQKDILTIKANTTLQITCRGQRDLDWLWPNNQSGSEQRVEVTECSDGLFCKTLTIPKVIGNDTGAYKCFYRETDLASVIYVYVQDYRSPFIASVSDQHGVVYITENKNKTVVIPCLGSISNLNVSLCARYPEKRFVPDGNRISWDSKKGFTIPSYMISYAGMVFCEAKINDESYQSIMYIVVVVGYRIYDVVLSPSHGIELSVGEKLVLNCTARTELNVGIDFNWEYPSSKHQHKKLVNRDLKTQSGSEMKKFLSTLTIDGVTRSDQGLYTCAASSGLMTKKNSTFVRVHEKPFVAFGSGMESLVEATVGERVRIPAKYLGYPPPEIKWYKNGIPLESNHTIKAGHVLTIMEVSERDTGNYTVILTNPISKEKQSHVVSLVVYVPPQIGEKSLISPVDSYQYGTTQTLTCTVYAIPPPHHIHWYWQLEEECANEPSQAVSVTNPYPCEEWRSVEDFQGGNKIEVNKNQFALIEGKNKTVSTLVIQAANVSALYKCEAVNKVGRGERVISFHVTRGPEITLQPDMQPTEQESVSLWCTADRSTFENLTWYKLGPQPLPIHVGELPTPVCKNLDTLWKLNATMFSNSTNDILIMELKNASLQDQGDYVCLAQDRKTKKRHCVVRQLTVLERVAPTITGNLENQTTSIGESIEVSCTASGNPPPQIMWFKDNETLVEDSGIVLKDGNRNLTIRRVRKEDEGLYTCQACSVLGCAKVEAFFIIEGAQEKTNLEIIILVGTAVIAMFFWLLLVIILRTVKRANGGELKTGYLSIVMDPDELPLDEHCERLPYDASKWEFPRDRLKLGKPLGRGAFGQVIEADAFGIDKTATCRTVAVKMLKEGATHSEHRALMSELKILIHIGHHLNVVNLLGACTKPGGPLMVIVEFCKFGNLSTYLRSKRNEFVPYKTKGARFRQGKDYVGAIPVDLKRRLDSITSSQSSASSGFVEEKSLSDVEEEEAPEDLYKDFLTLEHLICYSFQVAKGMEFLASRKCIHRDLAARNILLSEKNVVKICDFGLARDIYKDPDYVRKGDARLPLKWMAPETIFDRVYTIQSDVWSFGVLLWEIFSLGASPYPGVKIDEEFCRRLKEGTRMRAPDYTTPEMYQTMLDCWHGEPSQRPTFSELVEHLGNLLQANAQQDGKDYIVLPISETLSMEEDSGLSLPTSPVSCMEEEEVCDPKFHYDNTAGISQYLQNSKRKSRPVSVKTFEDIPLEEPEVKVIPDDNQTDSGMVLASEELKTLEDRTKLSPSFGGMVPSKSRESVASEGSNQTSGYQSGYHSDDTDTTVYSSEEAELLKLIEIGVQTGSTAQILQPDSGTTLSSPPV
UniProt Q9NPY3, residues 22-652: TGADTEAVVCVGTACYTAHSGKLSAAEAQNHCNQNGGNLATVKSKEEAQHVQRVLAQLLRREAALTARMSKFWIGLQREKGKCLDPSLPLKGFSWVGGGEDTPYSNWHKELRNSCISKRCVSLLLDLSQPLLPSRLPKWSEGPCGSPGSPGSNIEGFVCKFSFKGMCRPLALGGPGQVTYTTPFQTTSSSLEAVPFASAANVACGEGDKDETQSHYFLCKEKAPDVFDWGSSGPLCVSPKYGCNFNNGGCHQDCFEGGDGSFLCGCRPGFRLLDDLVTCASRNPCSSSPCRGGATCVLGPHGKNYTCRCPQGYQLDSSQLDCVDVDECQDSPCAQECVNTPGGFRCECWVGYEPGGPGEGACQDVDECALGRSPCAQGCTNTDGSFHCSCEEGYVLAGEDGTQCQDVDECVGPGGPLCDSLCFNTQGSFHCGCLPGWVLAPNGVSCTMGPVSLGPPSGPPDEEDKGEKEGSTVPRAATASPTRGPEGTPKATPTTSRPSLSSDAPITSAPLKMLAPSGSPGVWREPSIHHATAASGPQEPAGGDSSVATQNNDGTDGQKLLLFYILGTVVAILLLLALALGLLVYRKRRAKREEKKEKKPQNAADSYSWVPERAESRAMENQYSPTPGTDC
UniProt P23467, residues 23-1997: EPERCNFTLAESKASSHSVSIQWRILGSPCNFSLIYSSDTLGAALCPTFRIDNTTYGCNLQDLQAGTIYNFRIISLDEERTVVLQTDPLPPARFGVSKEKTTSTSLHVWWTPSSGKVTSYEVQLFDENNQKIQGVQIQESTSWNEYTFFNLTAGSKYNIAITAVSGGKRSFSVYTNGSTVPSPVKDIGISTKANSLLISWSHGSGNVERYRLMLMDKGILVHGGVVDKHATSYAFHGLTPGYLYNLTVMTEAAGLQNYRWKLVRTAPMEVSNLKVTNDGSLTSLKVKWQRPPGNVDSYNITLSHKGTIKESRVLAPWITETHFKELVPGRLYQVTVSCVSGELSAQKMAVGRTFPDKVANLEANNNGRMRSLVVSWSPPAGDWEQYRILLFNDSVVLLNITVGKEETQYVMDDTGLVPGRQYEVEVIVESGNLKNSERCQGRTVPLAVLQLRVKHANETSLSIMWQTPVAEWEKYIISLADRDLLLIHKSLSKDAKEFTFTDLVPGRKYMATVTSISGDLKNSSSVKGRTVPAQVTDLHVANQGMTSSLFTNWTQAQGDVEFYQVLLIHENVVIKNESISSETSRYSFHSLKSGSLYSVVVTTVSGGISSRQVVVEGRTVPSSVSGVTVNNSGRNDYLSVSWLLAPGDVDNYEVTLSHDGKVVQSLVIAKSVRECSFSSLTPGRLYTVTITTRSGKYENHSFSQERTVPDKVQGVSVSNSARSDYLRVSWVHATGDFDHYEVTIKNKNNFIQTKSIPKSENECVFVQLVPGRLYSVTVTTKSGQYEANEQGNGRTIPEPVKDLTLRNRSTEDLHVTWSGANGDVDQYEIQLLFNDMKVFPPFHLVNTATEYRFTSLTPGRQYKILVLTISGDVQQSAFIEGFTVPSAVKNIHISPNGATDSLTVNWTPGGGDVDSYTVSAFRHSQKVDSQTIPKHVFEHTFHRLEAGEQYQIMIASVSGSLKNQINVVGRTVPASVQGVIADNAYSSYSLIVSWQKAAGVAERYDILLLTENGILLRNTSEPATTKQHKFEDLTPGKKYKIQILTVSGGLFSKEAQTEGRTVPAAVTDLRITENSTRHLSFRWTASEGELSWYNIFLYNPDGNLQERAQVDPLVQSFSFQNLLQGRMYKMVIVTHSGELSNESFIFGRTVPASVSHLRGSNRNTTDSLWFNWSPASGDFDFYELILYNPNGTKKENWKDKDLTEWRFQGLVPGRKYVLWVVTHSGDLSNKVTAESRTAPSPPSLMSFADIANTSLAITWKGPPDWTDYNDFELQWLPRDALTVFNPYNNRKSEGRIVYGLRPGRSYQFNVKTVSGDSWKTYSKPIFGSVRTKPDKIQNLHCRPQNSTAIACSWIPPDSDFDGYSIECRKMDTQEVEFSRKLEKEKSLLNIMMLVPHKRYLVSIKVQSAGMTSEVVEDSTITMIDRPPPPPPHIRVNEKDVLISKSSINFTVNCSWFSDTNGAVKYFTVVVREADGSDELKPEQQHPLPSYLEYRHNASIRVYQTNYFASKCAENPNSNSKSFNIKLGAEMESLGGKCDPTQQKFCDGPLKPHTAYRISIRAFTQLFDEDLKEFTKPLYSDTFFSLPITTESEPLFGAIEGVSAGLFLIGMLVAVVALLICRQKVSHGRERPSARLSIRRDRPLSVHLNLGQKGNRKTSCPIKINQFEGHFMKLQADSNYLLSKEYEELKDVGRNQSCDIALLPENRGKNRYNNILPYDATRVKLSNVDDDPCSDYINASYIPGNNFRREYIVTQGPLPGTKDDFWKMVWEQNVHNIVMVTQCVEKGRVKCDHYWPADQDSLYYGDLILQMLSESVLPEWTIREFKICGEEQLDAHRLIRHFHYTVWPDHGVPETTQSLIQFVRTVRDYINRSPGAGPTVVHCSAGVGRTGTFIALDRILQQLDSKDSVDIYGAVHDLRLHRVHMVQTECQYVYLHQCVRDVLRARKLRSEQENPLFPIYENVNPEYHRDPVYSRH

What was measured:
[1] = molecular target: vascular endothelial growth factor receptor 2 (human (endogenous in HDBECs)) (UniProt P35968); assay: proximity ligation; in situ PLA (Duolink kit) on HDBEC monolayers with anti-VEGFR2, anti-VE-PTP and anti-CD93 antibodies; with/without VEGF (10 ng/mL, 5 minutes); control, CD93 siRNA or VE-PTP knock-down
[2] = molecular target: CD93 (human (endogenous in HDBECs)) (UniProt Q9NPY3); assay: co-IP; CD93 precipitated from total protein extracts of cultured HDBECs with a Pierce co-IP kit; VEGFR2 detected by Western blot; IgG co-IP as control
[3] = molecular target: CD93 (human (endogenous in HDBECs)) (UniProt Q9NPY3); assay: proximity ligation; in situ PLA (Duolink kit) on HDBEC monolayers with anti-VEGFR2, anti-VE-PTP and anti-CD93 antibodies; with/without VEGF (10 ng/mL, 5 minutes); control, CD93 siRNA or VE-PTP knock-down

Row | Substance | binding [1] | binding [2] | binding [3]
1 | Vascular endothelial protein tyrosine phosphatase (from UniProt P23467 23-1997) (enzyme) | binds | – | –
2 | vascular endothelial growth factor receptor 2 (from UniProt P35968 20-1356) | – | binds | binds
